Source: patent publication US20020123082A1
No constants are given. Whether binding was seen depends on the method and setting. For part of these data: Binding seen in cells or lysates may run through a third protein. Some results given as binding are weak or reduced against the parent protein; the word gives no strength. For part of these data: Where a sequence is shown, tags or fusion partners need not be part of it. Values belong to the binder of their own block, whether it stands above or below them.

The chains behind the UniProt entries cited, without tags or fusion partners. Where a name states a change or a piece, a line headed by the entry shows the natural chain unless it says otherwise. Residues count along the entry.
UniProt P63208: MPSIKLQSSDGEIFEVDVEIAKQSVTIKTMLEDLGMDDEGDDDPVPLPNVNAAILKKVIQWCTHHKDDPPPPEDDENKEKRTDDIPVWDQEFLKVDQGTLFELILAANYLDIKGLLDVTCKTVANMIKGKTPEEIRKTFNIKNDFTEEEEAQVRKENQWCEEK
human Skp1 (endogenous, HeLa cells): residues 2-163 of P63208
UniProt P04386: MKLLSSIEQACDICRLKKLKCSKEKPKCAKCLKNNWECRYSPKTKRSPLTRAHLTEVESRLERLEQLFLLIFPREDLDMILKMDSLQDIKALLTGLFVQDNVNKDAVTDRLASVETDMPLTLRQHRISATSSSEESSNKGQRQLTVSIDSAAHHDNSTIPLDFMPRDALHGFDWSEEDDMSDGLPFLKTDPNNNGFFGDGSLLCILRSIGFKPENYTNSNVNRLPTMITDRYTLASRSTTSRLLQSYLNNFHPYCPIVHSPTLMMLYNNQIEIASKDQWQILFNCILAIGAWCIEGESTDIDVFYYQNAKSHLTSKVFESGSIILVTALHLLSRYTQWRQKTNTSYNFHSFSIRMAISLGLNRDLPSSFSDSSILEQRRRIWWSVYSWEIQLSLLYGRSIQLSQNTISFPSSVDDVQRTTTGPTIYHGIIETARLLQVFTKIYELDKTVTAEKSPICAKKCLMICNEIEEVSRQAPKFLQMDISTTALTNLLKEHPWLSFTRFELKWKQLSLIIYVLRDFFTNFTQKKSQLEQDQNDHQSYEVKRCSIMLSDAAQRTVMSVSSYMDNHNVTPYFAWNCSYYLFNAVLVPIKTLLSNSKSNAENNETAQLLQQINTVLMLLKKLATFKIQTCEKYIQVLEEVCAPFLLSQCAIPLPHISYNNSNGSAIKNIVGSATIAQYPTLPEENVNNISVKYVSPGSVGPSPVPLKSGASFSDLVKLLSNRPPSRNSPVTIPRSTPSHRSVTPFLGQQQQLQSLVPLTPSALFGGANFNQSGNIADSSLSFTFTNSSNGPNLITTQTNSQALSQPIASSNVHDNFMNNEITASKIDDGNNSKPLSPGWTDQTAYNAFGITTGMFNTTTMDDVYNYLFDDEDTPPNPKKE

Assays:
His-tagged Skp1 (human) = His-tagged Skp1 (human) (UniProt P63208); assay: pull-down of in vitro translated 35S-FBP on His-Skp1 Nickel-agarose beads, autoradiography
[1] = target: Gal4 DB-Skp1 fusion protein (yeast; human) (UniProt P04386+P63208); assay: yeast two-hybrid, Gal4 DB-Skp1 bait, Gal4 AD T-cell cDNA library prey, three reporter assays
[2] = target: human Skp1 (endogenous, HeLa cells) (human) (UniProt P63208); assay: anti-Flag co-immunoprecipitation from transfected HeLa cells, immunoblot
[3] = target: human Skp1 (endogenous, HeLa cells) (human) (UniProt P63208); assay: anti-Flag co-immunoprecipitation from transfected HeLa cells, immunoblot; endogenous partner

B3: Flag-tagged FBP2 (protein, not shown: small tags and cut ends)
chain: MERKDFETWLDNISVTFLSLTDLQKNETLDHLISLSGAVQLRHLSNNLETLLKRDFLKLLPLELSFYLLKWLDPQTLLTCCLVSKQWNKVISACTEVWQTACKNLGWQIDDSVQDALHWKKVYLKAILRMKQLEDHEAFETSSLIGHSARVYALYYKDGLLCTGSDDLSAKLWDVSTGQCVYGIQTHTCAAVKFDEQKLVTGSFDNTVACWEWSSGARTQHFRGHTGAVFSVDYNDELDILVSGSADFTVKVWALSAGTCLNTLTGHTEWVTKVVLQKCKVKSLLHSPGDYILLSADKYEIKIWPIGREINCKCLKTLSVSEDRSICLQPRLHFDGKYIVCSSALGLYQWDFASYDILRVIKTPEIANLALLGFGDIFALLFDNRYLYIMDLRTESLISRWPLPEYRESKRGSSFLAGEHPG
binding [2]: binds
binding [3]: binds

B5: Flag-tagged FBP3a (protein, not shown: small tags and cut ends)
chain: MKRGGRDSDRNSSEEGTAEKSKKLRTTNEHSQTCDWGNLLQDIILQVFKYLPLLDRAHASQVCRNWNQVFHMPDLWRCFEFELNQPATSYLKATHPELIKQIIKRHSNHLQYVSFKVDSSKESAEAACDILSQLVNCSLKTLGLISTARPSFMDLPKSHFISALTVVFVNSKSLSSLKIDDTPVDDPSLKVLVANNSDTLKLLKMSSCPHVSPAGILCVADQCHGLRELALNYHLLSDELLLALSSEKHVRLEHLRIDVVSENPGQTHFHTIQKSSWDAFIRHSPKVNLVMYFFLYEEEFDPFFRYEIPATHLYFGRSVSKDVLGRVGMTCPRLVELVVCANGLRPLDEELIRIAERCKNLSAIGLGECEVSCSAFVEFVKMCGGRLSQLSIMEEVLIPDQKYSLEQIHWEVSKHLGRVWFPDMMPTW
binding [2]: binds
binding [3]: binds

Continued, values first:

binding (His-tagged Skp1 (human)): binds
binding [1]: binds
B1: human F-box protein FBP3a (protein)
chain: B5 chain

binding (His-tagged Skp1 (human)): binds
B2: human F-box protein FBP5 (protein)
chain: MSRRPCSCALRPPRCSCSASPSAVTAAGRPRPSDSCKEESSTLSVKMKCDFNCNHVHSGLKLVKPDDIGRLVSYTPAYLEGSCKDCIKDYERLSCIGSPIVSPRIVQLETESKRLHNKENQHVQQTLNSTNEIEALETSRLYEDSGYSSFSLQSGLSEHEEGSLLEENFGDSLQSCLLQIQSPDQYPNKNLLPVLHFEKVVCSTLKKNAKRNPKVDREMLKEIIARGNFRLQNIIGRKMGLECVDILSELFRRGLRHVLATILAQLSDMDLINVSKVSTTWKKILEDDKGAFQLYSKAIQRVTENNNKFSPHASTREYVMFRTPLASVQKSAAQTSLKKDAQTKLSNQGDQKGSTYSRHNEFSEVAKTLKKNESLKACIRCNSPAKYDCYLQRATCKREGCGFDYCTKCLCNYHTTKDCSDGKLLKASCKIGPLPGTKKSKKNLRRL

binding (His-tagged Skp1 (human)): binds
binding [1]: binds
B4: human F-box protein FBP2 (protein)
chain: B3 chain
